Results published in doi:10.1101/2021.06.22.449413.
Substitutions are numbered along the chain they refer to. In names and notes the source's numbering stands. Results are given in words; binding and its absence hold for the method and conditions named. For part of these data: In cells and extracts the contact can be indirect. Some results given as binding are weak or reduced against the parent protein; the word gives no strength. For part of these data: Where a sequence is shown, tags or fusion partners need not be part of it. One block for each binder: values may come before it.

Assays:
[1] = biological target: T1, Mia40, endogenous in isolated yeast mitochondria (S. cerevisiae (endogenous in yeast mitochondria)) (UniProt P36046); experiment: non-reducing SDS-PAGE of a mixed disulfide intermediate
T1 sequence: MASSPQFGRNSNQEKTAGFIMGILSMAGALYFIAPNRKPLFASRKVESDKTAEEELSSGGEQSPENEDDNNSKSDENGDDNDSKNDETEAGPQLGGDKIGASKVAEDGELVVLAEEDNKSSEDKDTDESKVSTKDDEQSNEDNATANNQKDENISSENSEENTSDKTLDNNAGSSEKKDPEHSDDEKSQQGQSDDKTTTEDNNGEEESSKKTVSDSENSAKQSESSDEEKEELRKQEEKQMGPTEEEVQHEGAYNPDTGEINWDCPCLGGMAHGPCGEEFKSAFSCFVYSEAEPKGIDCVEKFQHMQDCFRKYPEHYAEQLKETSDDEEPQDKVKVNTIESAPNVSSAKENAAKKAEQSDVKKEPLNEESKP

[2] = biological target: T2, Thioredoxin 1 (Trx1), His-tagged, wild type (S. cerevisiae) (UniProt P22217); experiment: pull-down
T2 sequence: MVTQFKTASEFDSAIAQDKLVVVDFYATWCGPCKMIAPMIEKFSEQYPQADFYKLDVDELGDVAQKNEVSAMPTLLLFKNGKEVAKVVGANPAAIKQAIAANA

[3] = biological target: T3, Trx1 C33S single mutant (thiol-trapping mutant), His-tagged (S. cerevisiae) (UniProt P22217); experiment: pull-down
T3 sequence: T2 sequence with C33S

[4] = biological target: T1, Mia40, endogenous in isolated yeast mitochondria (S. cerevisiae (endogenous in yeast mitochondria)); experiment: native gel or EMSA
[5] = biological target: T4, Tim10, endogenous in isolated yeast mitochondria (S. cerevisiae (endogenous in yeast mitochondria)) (UniProt P87108); experiment: native gel or EMSA
T4 sequence: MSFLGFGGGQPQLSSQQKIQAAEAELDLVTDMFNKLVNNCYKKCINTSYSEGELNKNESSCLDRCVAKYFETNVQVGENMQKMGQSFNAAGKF

- binding [1]: binds
B1: Tim10(C65S), 35S-labelled (protein, UniProt P87108 1-93)
chain: T4 sequence with C65S
modifications: 35S-labelled

- binding [2]: binds weakly
B2: Erv1, endogenous in isolated yeast mitochondria (protein, UniProt P27882 1-189)
chain: MKAIDKMTDNPPQEGLSGRKIIYDEDGKPCRSCNTLLDFQYVTGKISNGLKNLSSNGKLAGTGALTGEASELMPGSRTYRKVDPPDVEQLGRSSWTLLHSVAASYPAQPTDQQKGEMKQFLNIFSHIYPCNWCAKDFEKYIRENAPQVESREELGRWMCEAHNKVNKKLRKPKFDCNFWEKRWKDGWDE

- binding [2]: binds
- binding [3]: binds
B3: Mia40, endogenous in isolated yeast mitochondria (protein, UniProt P36046 32-403)
chain: T1 sequence

- binding [4]: binds
- binding [5]: binds
B4: Tim9, 35S-labelled precursor (protein, UniProt O74700 1-87)
chain: MDALNSKEQQEFQKVVEQKQMKDFMRLYSNLVERCFTDCVNDFTTSKLTNKEQTCIMKCSEKFLKHSERVGQRFQEQNAALGQGLGR
modifications: 35S-labelled
